# Data published in PubChem BioAssay AID540256 (National Center for Advancing Translational Sciences (NCATS), 2011).
# About 3,700 (1.2%) of roughly 300,000 compounds were called active. The inconclusive results got no clear call from the source; some entries with a clear call stand among them for comparison. Calls follow the shape of the full dose curve; tested in HEK293 cells. A potency beside an inconclusive call is a rough fit, not a confirmed value.
# Experiment: qHTS for Inhibitors of binding or entry into cells for Lassa Virus; also: nearly all actives have a fitted effect of over 50% in size
# Conditions: Lassa virus pseudotype entry inhibition, cell reporter; activity change, negative = inhibition: at 37.9 µM (top of the series) unless noted
# % is scaled to controls: 0 for no effect and ±100 for the full control effect; potency is read from the fitted curve at half-maximal effect.
SMILES,"activity change, negative = inhibition",Potency
O=c1c2sccc2n(Cc2cc(=O)n3ccccc3n2)c(=O)n1-c1cccc(C(F)(F)F)c1,inactive: -12.7% [at 46.1 µM],–
O=C(/C=C/c1ccccc1Cl)NC1CCS(=O)(=O)C1 (centres undefined),inactive: 9.54%,–
CCN(CC)c1ccc(/C=C2/SC(=O)N(C(C)C)C2=O)o1,–,"inconclusive: 13 µM [inhibitor, partial curve, poor fit]"
C#CCCOC(=O)N1C2=NC(C(=O)OC)=C(C(=O)OC)[C@@H]3N(C)c4ccccc4[C@]23C[C@H]1C(=O)OC,–,"inconclusive: 0.0299 µM [inhibitor, full curve, poor fit]"
Cc1nn(C(C)C(=O)Nc2ccccc2Cl)c(=O)c2nn(-c3ccccc3)c(C)c12 (centres undefined),–,"inconclusive: 2 µM [inhibitor, full curve]"
COc1cccc2sc(=NC(=O)CS(=O)(=O)c3ccc(F)cc3)n(C)c12,inactive: -0.68%,–
COc1cc(NC(=O)c2cccc(C)c2)c(OC)cc1NC(=O)CN1CCCCC1,–,"inconclusive: 22.4 µM [inhibitor, single point]"
NS(=O)(=O)c1ccc(CCNC(=O)c2ccc(Cl)c(S(=O)(=O)N3CCCCCC3)c2)cc1,–,"inconclusive: 35.5 µM [inhibitor, single point]"
Cc1onc(-c2ccccc2Cl)c1C(=O)Nc1nc2c(s1)CCCC2,–,"inconclusive: 35.5 µM [inhibitor, single point]"
OC(CNCCNc1ncccc1C(F)(F)F)COc1ccc(F)cc1 (centres undefined),–,"inconclusive: 5.62 µM [inhibitor, single point]"
CCN1CCN(c2cc(-c3ccccc3)nc3cc(-c4cccc(F)c4)nn23)CC1,–,"inconclusive: 25.1 µM [inhibitor, single point]"
Cc1cc(-c2ccccc2)nc(N/N=C/c2ccc(O)cc2)n1,–,active: 8.91 µM
CC(C)OC(=O)CSc1nnc2n1C(C)(C)Cc1ccccc1-2,inactive: 2.32%,–
COc1ccc2c(c1)[nH]c1c(=O)n(Cc3ccco3)cnc12,–,"inconclusive: 35.5 µM [inhibitor, single point]"
Cc1ccc(-c2cc3c(N4CCN(c5cc(C)ccc5C)CC4)nccn3n2)cc1,–,"inconclusive: 1.58 µM [inhibitor, full curve, poor fit]"
O=C(NCCCc1ccccc1)c1cccc(NC(=O)C2CCCCC2)c1,–,"inconclusive: 0.995 µM [inhibitor, full curve, poor fit]"
CC(C)n1c(SCC(=O)NC2CC2)nnc1C1CC1,inactive: 4.71% [at 46.1 µM],–
Cn1ncc2c(Nc3ccc(-c4ccccc4)cc3)ncnc21,–,active: 3.66 µM
Cc1ccc(C(=O)Nc2ccc(O)cc2C(=O)O)cc1C,–,"inconclusive: 16.4 µM [inhibitor, single point]"
CN(c1ccc(OCC(=O)NCc2cccnc2)cc1)S(=O)(=O)c1ccc(Cl)cc1,–,"inconclusive: 3.98 µM [inhibitor, single point]"
CCC(=NCc1ccc(Cl)c(Cl)c1)c1nc(-c2ccco2)oc1O,–,"inconclusive: 32.6 µM [inhibitor, partial curve, poor fit]"
Cc1cccc(/C=C2\Sc3ccc(C(=O)NCC4CCCO4)cc3N(C)C2=O)c1 (centres undefined),–,"inconclusive: 20 µM [inhibitor, partial curve, poor fit]"
O=C(NCCc1ccccc1F)C(=O)Nc1nccs1,–,"inconclusive: 4.47 µM [activator, partial curve, poor fit]"

SMILES,"activity change, negative = inhibition",Potency
CCOc1ccccc1CNC(=O)CCn1ccc2cc(S(=O)(=O)N3CCCCC3)ccc21,–,"inconclusive: 5.62 µM [inhibitor, single point]"
N#C/C(=C/c1ccc(-c2ccc([N+](=O)[O-])cc2)o1)C(=O)Nc1nc(-c2cccs2)cs1,–,"inconclusive: 12.6 µM [activator, single point]"
CCCCc1cc(-c2n[nH]c(=S)o2)c2ccccc2n1,inactive: 4.1%,–
O=C(Nc1sc2c(c1C(=O)O)CCCCC2)c1ccco1,–,"inconclusive: 29.1 µM [inhibitor, single point]"
O=C(CCn1cncn1)N1CCCC(N2CCN(c3ccc(F)cc3)CC2)C1 (centres undefined),–,"inconclusive: 12.6 µM [activator, partial curve, poor fit]"
O=C(Nc1nc2ccccc2s1)C1CCN(C(=O)c2ccco2)CC1,inactive: -29.5%,–
CCN(CC)CCn1c(=N)n(CCOc2ccccc2)c2ccccc21,–,active: 20.6 µM
CO/N=C/c1ccc(OC)c(Oc2nc(OC)cc(OC)n2)c1,–,"inconclusive: 6.31 µM [inhibitor, single point]"
COCCCNC(=O)c1ccc(Cn2c(=O)c3ccccc3n(Cc3ccccc3C#N)c2=O)cc1,–,"inconclusive: 29.1 µM [inhibitor, single point]"
CC(C)CCOc1ccccc1Cn1c(=O)sc2ccccc21,inactive: 19.7% [at 46.1 µM],–
CC(=O)Nc1ccc(C(=O)c2ccccc2)cc1,–,"inconclusive: 35.5 µM [activator, single point]"
COCC(C)n1c(C)cc(C(=O)COC(=O)c2oc3ccccc3c2C)c1C (centres undefined),–,"inconclusive: 15.8 µM [inhibitor, single point]"
O=C(Nn1cnnc1)c1ccc(OC(F)(F)C(F)C(F)(F)F)cc1 (centres undefined),–,"inconclusive: 35.5 µM [activator, single point]"
C/C(=N\NC(=O)c1ccc(Cn2cc(Br)cn2)o1)c1cccc(NC(=O)C(C)(C)C)c1,inactive: 13.6%,–
COc1ccccc1NC(=O)C1CCCN(c2cc(C)nc3ncnn23)C1 (centres undefined),–,"inconclusive: 0.631 µM [inhibitor, full curve]"
C=CCNC(=O)CSc1nnc(-c2ccccc2Cl)n1-c1c(C)n(C)n(-c2ccccc2)c1=O,–,"inconclusive: 29.1 µM [inhibitor, single point]"
CC(=C/C(=O)O)/C=C/c1ccc([N+](=O)[O-])cc1,inactive: 28.1%,–
CC(C)c1ccc(O)c(NC(=O)c2cccnc2)c1,inactive: 4.44%,–
CC(=O)Nc1cccc(-c2cnc3ccccc3n2)c1,–,"inconclusive: 1.12 µM [activator, full curve, poor fit]"
Cc1ccc(-c2noc(CCC(=O)N(C)c3ccccc3C)n2)cc1,–,"inconclusive: 11.2 µM [inhibitor, partial curve, poor fit]"
COc1ccc(N2CCN(C(=O)C3Cc4ccccc4CN3C(=O)c3ccco3)CC2)cc1 (centres undefined),–,"inconclusive: 0.0891 µM [inhibitor, full curve, poor fit]"
NC1CCN(O)C1=O (centres undefined),–,"inconclusive: 6.51 µM [inhibitor, single point]"
Cc1ccc(CNC(=O)c2ccc3c(c2)nc2n3CCCC2)cc1,–,"inconclusive: 5.62 µM [activator, full curve, poor fit]"

SMILES,"activity change, negative = inhibition",Potency
COc1ccc(C(c2nnnn2Cc2cccs2)N2CCC(C(N)=O)CC2)c(OC)c1 (centres undefined),–,"inconclusive: 0.891 µM [inhibitor, full curve]"
CN(Cc1ccccc1)C(=O)CC(c1ccccc1)c1cc(Cl)ccc1O (centres undefined),–,"inconclusive: 10 µM [inhibitor, partial curve, poor fit]"
CN(C)CCN(C(=O)c1cc(Cl)sc1Cl)c1nc2ccc(F)cc2s1,–,"inconclusive: 35.5 µM [activator, single point]"
COc1ccc(-c2cc(OC(=O)c3cccc(C)c3)c3c(C)oc(C)c3c(=O)c2)cc1,–,"inconclusive: 35.5 µM [inhibitor, single point]"
O=C(Nc1ccc(-n2ccnc2P(=O)(O)c2ccccc2)cc1)c1ccccc1Cl,–,"inconclusive: 29.1 µM [activator, single point]"
COc1cc(-c2nnc3sc(-c4ccco4)nn23)cc(OC)c1OC,–,"inconclusive: 4.11 µM [inhibitor, full curve]"
Cc1nc(Cl)c(C(=O)NC(=O)NCc2ccccc2)c(C)c1Cl,–,"inconclusive: 7.08 µM [inhibitor, full curve, poor fit]"
CCOP(=O)(OCC)c1nc(-c2cccc3ccccc23)oc1NCc1ccccc1,inactive: 14.8% [at 14.3 µM],–
Cc1nc2ccc(S(=O)(=O)Nc3ccc(-c4nc5cccnc5s4)cc3)cc2s1,inactive: 24.9%,–
Cc1ccc(C)c(S(=O)(=O)N2CCCOC2CNC(=O)C(=O)NCCN2CCOCC2)c1 (centres undefined),inactive: -2.55%,–
COc1ccccc1CN1CC(C(=O)N(C)Cc2ccncc2C)CCC1=O (centres undefined),inactive: 1.26%,–
Cc1ccc2c(c1)C(=O)c1ccccc1CS2=O (centres undefined),inactive: -2.26%,–
CCCC(=O)Nc1cc(=O)[nH]c2ncnn12,inactive: 25.5%,–
Cc1cc(C(=O)OCC(=O)Nc2c(F)cccc2F)c(C)n1-c1ccccc1,–,"inconclusive: 35.5 µM [inhibitor, single point]"
COc1cccc(NS(=O)(=O)c2cc3c4c(c2)C(C)C(=O)N4CCC3)c1 (centres undefined),–,"inconclusive: 1.78 µM [inhibitor, partial curve, poor fit]"
COc1cccc(Nc2n[nH]c(=S)s2)c1,inactive: 7.14%,–
O=C(NCc1ccccc1Cl)C1CCCN(c2ncnc3c2nc2n3CCCCC2)C1 (centres undefined),–,"inconclusive: 35.5 µM [inhibitor, partial curve, poor fit]"
CCc1ccc(NC(=O)c2c(C(=O)Nc3ccccc3)sc3nc(C)cc(=O)n23)cc1,–,"inconclusive: 18.3 µM [inhibitor, single point]"
c1ccc(Cn2nnc(-c3ccccc3)n2)cc1,–,"inconclusive: 25.9 µM [activator, single point]"
Cc1cc(C)c(NS(=O)(=O)c2cc(-c3cnc(C4CC4)o3)ccc2C)c(C)c1,inactive: -17.4% [at 46.1 µM],–
NNC(=S)Nc1ccccc1Cl,inactive: -2.6% [at 46.1 µM],–
C=CCn1c(C)cc(C(=O)CN2C(=O)c3ccccc3S2(=O)=O)c1C,–,"inconclusive: 0.447 µM [inhibitor, full curve, poor fit]"
CN1CCC(n2cnc(-c3ccc(F)cc3)c2-c2ccnc(N)n2)CC1,–,"inconclusive: 31.5 µM [inhibitor, single point]"

# Rewritten bar-delimited: entries from further up.
SMILES | activity change, negative = inhibition | Potency
COc1ccc(C(c2nnnn2Cc2cccs2)N2CCC(C(N)=O)CC2)c(OC)c1 (centres undefined) | – | inconclusive: 0.891 µM [inhibitor, full curve]
CN(Cc1ccccc1)C(=O)CC(c1ccccc1)c1cc(Cl)ccc1O (centres undefined) | – | inconclusive: 10 µM [inhibitor, partial curve, poor fit]
CN(C)CCN(C(=O)c1cc(Cl)sc1Cl)c1nc2ccc(F)cc2s1 | – | inconclusive: 35.5 µM [activator, single point]
COc1ccc(-c2cc(OC(=O)c3cccc(C)c3)c3c(C)oc(C)c3c(=O)c2)cc1 | – | inconclusive: 35.5 µM [inhibitor, single point]
O=C(Nc1ccc(-n2ccnc2P(=O)(O)c2ccccc2)cc1)c1ccccc1Cl | – | inconclusive: 29.1 µM [activator, single point]
COc1cc(-c2nnc3sc(-c4ccco4)nn23)cc(OC)c1OC | – | inconclusive: 4.11 µM [inhibitor, full curve]
